Measurements taken from PubChem BioAssay AID504467 (National Center for Advancing Translational Sciences (NCATS), 2011).
In all, about 330,000 compounds went through this assay and about 7,700 (2.3%) were called active. Inconclusive means that the source gave no clear call. Such entries were picked first, then a sample of the others. Calls follow the shape of the dose curve; as a rule, active = well fitted inhibition curve with a large enough effect; inconclusive = small, poorly fitted or top-dose-only effect, or effect the other way; inactive = flat fitted curve, though single readings scatter. A potency beside an inconclusive call is a rough fit, not a confirmed value.

Assay: qHTS screen for small molecules that inhibit ELG1-dependent DNA repair in human embryonic kidney (HEK293T) cells expressing luciferase-tagged ELG1; also: nearly all actives have a fitted effect of over 55% in size
Settings: HEK293T ELG1-luciferase reporter, luminescence, 16 h, DNA damage induced by 5-fluorouridine; series mostly up to 46.1 µM
Procedure, shortened: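 Cells (2,000 per well) received 5-fluorouridine plus test compound or DMSO and were incubated 16 hr at 37 °C, 5% CO2. Luciferase activity was read by luminescence 30 min after ONE-Glo addition; signal suppression marked inhibition of damage-induced ELG1 function.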
Potency is read from the fitted curve at half-maximal effect.

Compound | Potency
CCOc1ccccc1/C=N/NC(=O)c1ccc(Cn2cc([N+](=O)[O-])cn2)o1 | inactive
Cn1ncc([N+](=O)[O-])c1C(=O)Nc1ccc(-c2nc3ccccc3[nH]2)cc1 | inconclusive: 3.26 µM [activator, partial curve, poor fit]
O=C(NC1CC1)c1cccc(S(=O)(=O)N2CCOCC2)c1 | inactive
O=C(/C=C/c1cccs1)c1ccc(N2CCOCC2)cc1 | inconclusive: 23.1 µM [activator, partial curve]
COc1cccc(/C=C2\SC(=O)N(CC(=O)NC3C=CS(=O)(=O)C3)C2=O)c1 (stereo not given) | inconclusive: 32.6 µM [inhibitor, single point]
Cc1ccc(C(=O)N2CCN(c3ccccc3)CC2)cc1C | inconclusive: 25.9 µM [activator, single point]
Cc1ccc(N2C(=O)N(CC(=O)Nc3cccc(C)c3C)C(=O)C2C)cc1 (stereo not given) | inconclusive: 10.3 µM [activator, single point]
O=C(NCc1ccccc1)c1nncc(-c2ccccc2)n1 | inconclusive: 20.6 µM [activator, single point]
O=C(c1cc2ccccc2oc1=O)N(Cc1cccs1)Cc1cccs1 | inactive
COc1ccc(CNc2cc(C)nc3ccc(OC)cc23)cc1 | inactive
Cc1ccc2nsnc2c1S(=O)(=O)N(Cc1ccco1)Cc1cc2ccc(C)c(C)c2[nH]c1=O | inactive
O=c1c2c3c(sc2nc2n1CCCCC2)CCCC3 | inconclusive: 14.6 µM [activator, partial curve]
O=C(c1cc(-c2cccs2)nc2ccccc12)N1CCN(c2ccccc2)CC1 | inconclusive: 29.1 µM [inhibitor, single point]
CCOC(=O)CN(C)Cc1cn(C)nc1-c1ccc(Oc2ccccc2)cc1 | inconclusive: 29.1 µM [inhibitor, single point]
Cc1ccc(Cl)cc1NC(=O)c1cc(NC(=O)C2CCCCC2C(=O)O)ccc1N1CCOCC1 (stereo not given) | inactive
COc1ccc(Cc2nc(-c3ccc(NC(=O)c4cccnc4)cc3)no2)cc1 | inactive
O=C(C1CCN(S(=O)(=O)c2cccc3cccnc23)CC1)N1CCc2ccccc21 | inconclusive: 18.4 µM [inhibitor, single point]
CCOC(=O)c1ccc(S(=O)(=O)Nc2nc3cc(S(=O)(=O)NC4=NCCCCC4)ccc3s2)cc1 | inactive
COc1ccccc1CNS(=O)(=O)c1ccc(-c2cnc(C3CC3)o2)cc1 | inconclusive: 0.58 µM [inhibitor, full curve]
COc1ccc(CNS(=O)(=O)NCc2ccc(C)cc2)cc1OC | active: 20.6 µM
COc1ccnc(Oc2ccccc2)c1C(=O)N/C=N/OCc1ccc(F)cc1Cl | active: 18.4 µM
Cc1ccc(Cn2ncc3c(N4CCN(Cc5ccc(Cl)cc5)CC4)ncnc32)cc1 | active: 5.8 µM
COc1ccc(NC(=O)C2CCN(c3nnnn3-c3ccccc3)CC2)cc1 | inactive

Looked up above.
Potency with `O=C(NCc1ccccc1)c1nncc(-c2ccccc2)n1` reads inconclusive: 20.6 µM [activator, single point]
Potency with `Cc1ccc(C(=O)N2CCN(c3ccccc3)CC2)cc1C` reads inconclusive: 25.9 µM [activator, single point]

Additional results.

Compound | Potency
CCOC(=O)c1sc(NC(=O)c2ccc(OC(C)=O)cc2)nc1C | inconclusive: 7.3 µM [activator, partial curve]
O=[N+]([O-])c1cc(-c2ccc(/C=N/c3nc4ccccn4c3-c3ccco3)o2)ccc1Cl | inconclusive: 6.51 µM [activator, partial curve]
CC(=O)OC1c2c(ccc3ccc(=O)oc23)OC(C)(C)C1OC(=O)CC(C)C (stereo not given) | inactive
Cc1cccc(N(CC(=O)NC(C)(C)C)C(=O)CCC(=O)Nc2ccccn2)c1 | inactive
CCCn1c(SCC(=O)Nc2ccccc2N2CCCCC2)nc2c1c(=O)n(C)c(=O)n2C | active: 7.31 µM
CCOc1ccc(C(=O)OC2CCN(C)CC2)cc1 | inconclusive: 18.4 µM [activator, single point]
O=C1CCC/C(=N\NC(=O)c2ccc(COc3cccc4cccnc34)cc2)C1 | inconclusive: 20.6 µM [inhibitor, partial curve, poor fit]
CCS(=O)(=O)c1ccc2oc(Nc3ccccc3C)nc2c1 | inconclusive: 10 µM [activator, partial curve]
O=C(O)CSc1c2c(nc3cc(C(=O)Nc4cccc(C(F)(F)F)c4)ccc13)CCC2 | inconclusive: 32.6 µM [activator, partial curve, poor fit]
CSc1ccc(C2(O)Cc3cccc[n+]3C2c2ccccc2)cc1 (stereo not given) | inactive
CCn1c(SCc2cccc(F)c2)nnc1-c1cccnc1 | inactive
COc1ccc(/C=C/C(=O)Nc2cc(S(=O)(=O)N3CCOCC3)ccc2OC)cc1 | inconclusive: 32.6 µM [inhibitor, partial curve, poor fit]
Cc1cccc(NC(=O)COC(=O)c2cccc3c2C(=O)c2ccccc2C3=O)c1C | active: 20.6 µM
Nc1c(C(=O)Nc2ccc(S(=O)(=O)N3CCCC3)cc2)sc2nc3ccc(OC(F)(F)F)cc3cc12 | inconclusive: 16.4 µM [activator, single point]
COc1ccc(NC(=O)Nc2ccc3c(c2)N(C)C(=O)CS3)cc1OC | inconclusive: 29.1 µM [inhibitor, single point]
CC1Sc2ccc(S(=O)(=O)CCC(=O)Nc3ccccn3)cc2NC1=O (stereo not given) | inactive
COC(=O)c1cc(C(=O)OCC(=O)N(C)C2CCS(=O)(=O)C2)cc([N+](=O)[O-])c1 (stereo not given) | inactive
Cc1ccccc1NC(=O)Cc1nc(COC(=O)c2ccccn2)cs1 | inconclusive: 10.3 µM [activator, single point]
CCOc1ccc(NC(=O)NC2CCCc3ccccc32)cc1 (stereo not given) | inconclusive: 23.1 µM [activator, single point]
Cc1cccc(NC(=O)c2ccc(NC(C)c3ccccc3)c([N+](=O)[O-])c2)n1 (stereo not given) | inconclusive: 29.1 µM [inhibitor, single point]
COc1ccc(/C(C)=N/NC(=S)NCCc2ccccc2)c(O)c1 | inconclusive: 29.1 µM [inhibitor, single point]
O=C(COC(=O)c1cc(=O)[nH]c2ccccc12)Nc1nc(-c2ccccc2)cs1 | inconclusive: 18.3 µM [activator, partial curve]
